Measured values published in PMC3715410.
Results are given in words; binding and its absence hold for the method and conditions named. Binding seen in cells or lysates may run through a third protein.

Chains of the proteins cited; added tags and fusions are not shown. Lines headed by an entry give the natural chain unless they say otherwise; changes in a name come on top.
UniProt Q9Y3Z3: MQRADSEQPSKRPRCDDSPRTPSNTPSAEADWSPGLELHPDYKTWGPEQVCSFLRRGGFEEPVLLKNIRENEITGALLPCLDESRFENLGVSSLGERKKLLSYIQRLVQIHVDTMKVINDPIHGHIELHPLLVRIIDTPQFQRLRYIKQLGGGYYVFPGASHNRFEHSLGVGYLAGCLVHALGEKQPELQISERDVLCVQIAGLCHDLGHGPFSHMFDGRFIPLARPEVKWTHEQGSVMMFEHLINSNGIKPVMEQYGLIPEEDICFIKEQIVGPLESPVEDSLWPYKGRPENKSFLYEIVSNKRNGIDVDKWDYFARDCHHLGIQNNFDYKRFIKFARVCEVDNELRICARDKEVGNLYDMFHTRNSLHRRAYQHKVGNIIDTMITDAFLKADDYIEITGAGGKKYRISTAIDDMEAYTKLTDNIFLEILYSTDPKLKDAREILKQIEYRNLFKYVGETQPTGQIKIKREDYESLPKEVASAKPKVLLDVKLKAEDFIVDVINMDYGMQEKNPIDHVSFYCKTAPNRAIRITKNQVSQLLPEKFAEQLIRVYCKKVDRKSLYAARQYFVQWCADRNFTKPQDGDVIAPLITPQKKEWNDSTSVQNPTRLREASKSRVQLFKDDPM
UniProt Q9Y4B6: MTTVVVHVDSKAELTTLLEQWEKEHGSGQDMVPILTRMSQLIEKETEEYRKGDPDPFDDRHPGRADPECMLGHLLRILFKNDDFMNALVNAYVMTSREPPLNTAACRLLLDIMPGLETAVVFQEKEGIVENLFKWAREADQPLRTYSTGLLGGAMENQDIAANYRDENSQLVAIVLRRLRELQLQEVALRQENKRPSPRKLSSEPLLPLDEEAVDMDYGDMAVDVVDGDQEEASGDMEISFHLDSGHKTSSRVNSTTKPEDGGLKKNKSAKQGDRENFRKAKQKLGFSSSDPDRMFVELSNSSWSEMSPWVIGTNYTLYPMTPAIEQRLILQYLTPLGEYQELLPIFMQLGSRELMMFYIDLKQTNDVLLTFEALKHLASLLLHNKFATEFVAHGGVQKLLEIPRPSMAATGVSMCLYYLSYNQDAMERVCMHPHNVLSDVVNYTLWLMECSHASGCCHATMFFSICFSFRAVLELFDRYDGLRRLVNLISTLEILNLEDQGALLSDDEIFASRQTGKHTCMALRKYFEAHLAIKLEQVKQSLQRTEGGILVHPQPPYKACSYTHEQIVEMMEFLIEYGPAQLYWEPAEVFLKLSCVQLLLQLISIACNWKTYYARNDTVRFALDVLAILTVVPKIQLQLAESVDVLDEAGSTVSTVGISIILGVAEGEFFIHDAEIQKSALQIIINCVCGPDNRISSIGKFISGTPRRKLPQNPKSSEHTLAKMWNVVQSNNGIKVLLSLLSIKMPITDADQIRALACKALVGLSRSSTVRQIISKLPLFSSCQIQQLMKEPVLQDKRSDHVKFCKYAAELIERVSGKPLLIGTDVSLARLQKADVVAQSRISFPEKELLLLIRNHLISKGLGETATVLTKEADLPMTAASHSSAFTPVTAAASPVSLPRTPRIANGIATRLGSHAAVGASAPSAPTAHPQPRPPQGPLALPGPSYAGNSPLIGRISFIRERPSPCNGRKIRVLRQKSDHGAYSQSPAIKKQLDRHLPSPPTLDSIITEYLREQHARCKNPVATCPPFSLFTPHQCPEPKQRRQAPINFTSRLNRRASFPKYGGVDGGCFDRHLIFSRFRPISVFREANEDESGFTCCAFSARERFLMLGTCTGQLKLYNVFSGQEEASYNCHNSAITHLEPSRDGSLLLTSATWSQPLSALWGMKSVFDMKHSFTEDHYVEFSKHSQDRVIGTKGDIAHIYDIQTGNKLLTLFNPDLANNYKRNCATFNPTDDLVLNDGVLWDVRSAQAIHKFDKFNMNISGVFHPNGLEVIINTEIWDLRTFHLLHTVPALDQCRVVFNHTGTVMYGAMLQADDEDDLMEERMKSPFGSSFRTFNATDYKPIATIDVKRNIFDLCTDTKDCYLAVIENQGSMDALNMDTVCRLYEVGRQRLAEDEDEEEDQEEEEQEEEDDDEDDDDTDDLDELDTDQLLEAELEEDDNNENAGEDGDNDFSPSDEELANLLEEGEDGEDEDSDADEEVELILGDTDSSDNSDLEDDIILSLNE
UniProt Q16531: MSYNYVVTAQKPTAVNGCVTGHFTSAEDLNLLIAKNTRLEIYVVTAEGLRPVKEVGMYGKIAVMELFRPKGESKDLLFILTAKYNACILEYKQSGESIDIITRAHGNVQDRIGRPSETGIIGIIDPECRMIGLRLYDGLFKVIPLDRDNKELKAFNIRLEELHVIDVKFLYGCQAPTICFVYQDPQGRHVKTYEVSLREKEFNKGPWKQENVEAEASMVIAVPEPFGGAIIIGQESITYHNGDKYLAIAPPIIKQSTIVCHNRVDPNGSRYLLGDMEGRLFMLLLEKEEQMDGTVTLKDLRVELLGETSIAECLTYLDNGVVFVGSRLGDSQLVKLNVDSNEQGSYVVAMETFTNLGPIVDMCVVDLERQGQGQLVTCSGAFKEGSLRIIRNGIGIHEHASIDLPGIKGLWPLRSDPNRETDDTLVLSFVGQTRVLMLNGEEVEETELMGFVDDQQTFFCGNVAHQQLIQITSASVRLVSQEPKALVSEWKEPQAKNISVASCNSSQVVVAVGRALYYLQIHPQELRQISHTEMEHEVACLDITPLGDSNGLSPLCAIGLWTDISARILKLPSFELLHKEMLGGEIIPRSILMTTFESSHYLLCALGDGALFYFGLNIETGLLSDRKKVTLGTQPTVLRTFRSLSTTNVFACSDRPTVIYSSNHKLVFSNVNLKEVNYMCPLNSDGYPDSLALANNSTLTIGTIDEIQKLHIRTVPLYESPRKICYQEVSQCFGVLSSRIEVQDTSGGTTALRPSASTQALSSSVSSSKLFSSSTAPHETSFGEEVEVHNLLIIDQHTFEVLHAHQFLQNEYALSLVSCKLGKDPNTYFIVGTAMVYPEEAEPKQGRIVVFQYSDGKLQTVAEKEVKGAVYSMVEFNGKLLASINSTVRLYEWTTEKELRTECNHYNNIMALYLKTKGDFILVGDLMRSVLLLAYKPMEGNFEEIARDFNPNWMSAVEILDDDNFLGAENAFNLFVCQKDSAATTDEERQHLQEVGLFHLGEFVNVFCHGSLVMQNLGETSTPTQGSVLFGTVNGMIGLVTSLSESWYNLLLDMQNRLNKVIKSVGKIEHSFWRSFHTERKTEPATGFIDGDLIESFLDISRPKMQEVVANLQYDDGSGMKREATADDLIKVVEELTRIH

Target: HA-tagged human SAMHD1 ΔC (C-terminal truncation) (human) (UniProt Q9Y3Z3)
Assay: co-IP; HA-SAMHD1 (WT, ΔC, ΔN) transiently co-expressed in 293T cells with the autologous FLAG-Vpx or FLAG-Vpr; immunoprecipitated from whole cell extracts with anti-HA resin; FLAG-Vpx/Vpr, endogenous DCAF1 and DDB1 detected by western blotting

Substance | binding
DCAF1 (endogenous) (from UniProt Q9Y4B6 1-1507) | no binding
DDB1 (endogenous) (from UniProt Q16531 1-1140) | no binding
